Results reported in the supplement of paper PMC7824004.
Some of the results follow. The data scatter; read single values as rough.

system: Candida albicans SN425; assay: biofilm OD600 B-score; higher = more biofilm (less inhibition); details: 10 µM; assay detail: High-throughput adherence inhibition optical density biofilm assay with C. albicans SN425 in RPMI-1640/MOPS pH 7.0, 384-well plates. …
Method: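 High-throughput adherence inhibition optical density biofilm assay with C. albicans SN425 in RPMI-1640/MOPS pH 7.0, 384-well plates. Compound (10 µM) was present only during the 90 min adherence step, then washed out, and the biofilm grew 24 h without compound. Biofilm was read as OD600 after removing the media. Scores are the difference from the mean in standard deviations and the plate B-score.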

SMILES	biofilm OD600 B-score
Cc1ccc(NC(=O)CSc2nc(C)cc(=O)[nH]2)c(C)c1	0.454
NC(=O)C1CCN(C(=O)CSc2ccc(Cl)cc2)CC1	5.03
O=C(O)C1CC=CCC1C(=O)Nc1nc2ccccc2s1 (stereo not given)	-0.00783
O=C(Nc1ccccc1)c1cc(S(=O)(=O)Nc2cccnc2)cs1	0.0583
Cc1ccsc1C(=O)N1CCN(c2ccccn2)CC1	0.6
Cc1cc(C(=O)Nc2cccc(O)c2)co1	-0.0144
Cc1ccc(N2CC(C(N)=O)CC2=O)cc1C (stereo not given)	0.552
O=S(=O)(Nc1ccc(F)cc1Br)c1ccccc1	1.11
NS(=O)(=O)c1ccc(NC(=O)c2ccco2)cc1	2.2
CC(=O)C1=C(O)CCC1=NCCc1ccccc1	-2.12
CC(O)CNC(=O)C(=O)Nc1ccccc1Cl (stereo not given)	-0.669
NNc1nc(Nc2ccccc2)nc(N2CCCC2)n1	-2.36
O=C(Cc1ccc(F)cc1)NCc1cccnc1	-1.5
O=S(=O)(Nc1cccc2cccnc12)c1ccccc1	-2.97
N#Cc1c2n(c3c(=O)[nH]cnc13)CCCC2	1.65
Cc1c(C(=O)N2CCC(C(N)=O)CC2)sc(N)c1C#N	-2.05
COc1cc2c(C)[nH]c(=O)c(CC(=O)Nc3ccccc3)c2cc1OC	-0.211
CC(=O)Nc1nc(-c2ccccc2)c(-c2ccccc2)o1	0.376
CC(C)=CCCC(C)CN1CCC(O)CC1 (stereo not given)	-1.69
COc1ccc(OC)c(NC(=O)c2c(F)c(F)c(OC)c(F)c2F)c1	0.0431

SMILES	biofilm OD600 B-score
Cc1nc2sc(-c3ccccc3)cc2c(=O)n1CC(N)=O	0.136
COc1ccc(NC(=O)Nc2ccc(Cl)cn2)cc1	-0.0637
COc1ccc(CCNC(=O)C2CC=CCC2C(=O)O)cc1OC (stereo not given)	-4.01
CCOc1ccc(CN2CCC(O)CC2)cc1	-0.0452
O=C(Nc1ccc(N2CCCC2)cc1)c1cccnc1	-0.36
c1ccc(-n2nnnc2SCCN2CCOCC2)cc1	1.19
CCN(CC)S(=O)(=O)c1ccc(C)c(C)c1C	3.03
NC(=O)C1CCN(C(=O)c2ccc(Br)o2)CC1	0.146
Cc1ccc(S(=O)(=O)Nc2ccccc2C(=O)N2CCCC2)cc1	0.0294
CCC(NC(=O)C1C2CCC(C2)C1C(=O)O)c1ccccc1 (stereo not given)	-1.52
CC(=O)c1ccc(N2CCN(CC3CCCCC3)CC2)cc1	0.817
CN(C)c1ccnc2sc(C(N)=O)c(N)c12	0.487
CCc1ccc(NC(=O)Cn2nnnc2C)cc1	0.0225
Cc1ccc(C(=O)NCCC2=CCCCC2)o1	-0.289
O=C(Nc1ccccc1)Nc1nnc(-c2ccccc2)s1	0.28
CCc1nnc(NC(=O)c2ccoc2C)s1	4.65
Cc1cccc(NC(=O)c2ccccc2Cl)c1C(=O)O	-0.251
Cc1ccc(S(=O)(=O)Nc2nc(C)c(C)s2)cc1	0.392
COCC(=O)NCCc1ccc(OC)cc1	1.11
O=C(O)C1CCCCCN1 (stereo not given)	-1.82

Looked up one by one from the list above:
SMILES	biofilm OD600 B-score
CCC(NC(=O)C1C2CCC(C2)C1C(=O)O)c1ccccc1 (stereo not given)	-1.52
CCN(CC)S(=O)(=O)c1ccc(C)c(C)c1C	3.03
O=C(O)C1CCCCCN1 (stereo not given)	-1.82
